Data published in paper PMC8956657.
These are yes or no findings as the source states them, for the method shown. Binding seen in cells or lysates may run through a third protein. Some binding calls cover weakened binding; strength is not graded here.

Sequences of proteins named here, by UniProt entry; tags and fusion partners are left off.
UniProt O00629: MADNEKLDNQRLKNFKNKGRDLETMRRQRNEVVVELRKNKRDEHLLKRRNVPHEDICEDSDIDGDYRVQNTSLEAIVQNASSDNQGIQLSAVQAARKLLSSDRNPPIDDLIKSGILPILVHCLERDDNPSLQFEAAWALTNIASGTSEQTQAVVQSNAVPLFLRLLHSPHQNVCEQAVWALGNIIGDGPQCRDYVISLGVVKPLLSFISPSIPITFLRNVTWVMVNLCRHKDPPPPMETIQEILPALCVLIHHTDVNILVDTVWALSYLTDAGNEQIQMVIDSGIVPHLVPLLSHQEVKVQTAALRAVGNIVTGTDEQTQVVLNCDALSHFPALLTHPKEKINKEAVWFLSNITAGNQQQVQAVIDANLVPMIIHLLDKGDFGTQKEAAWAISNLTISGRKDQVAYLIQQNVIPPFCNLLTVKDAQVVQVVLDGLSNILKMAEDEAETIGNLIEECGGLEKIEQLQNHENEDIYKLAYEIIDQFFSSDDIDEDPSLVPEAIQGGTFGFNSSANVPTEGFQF
UniProt P52294: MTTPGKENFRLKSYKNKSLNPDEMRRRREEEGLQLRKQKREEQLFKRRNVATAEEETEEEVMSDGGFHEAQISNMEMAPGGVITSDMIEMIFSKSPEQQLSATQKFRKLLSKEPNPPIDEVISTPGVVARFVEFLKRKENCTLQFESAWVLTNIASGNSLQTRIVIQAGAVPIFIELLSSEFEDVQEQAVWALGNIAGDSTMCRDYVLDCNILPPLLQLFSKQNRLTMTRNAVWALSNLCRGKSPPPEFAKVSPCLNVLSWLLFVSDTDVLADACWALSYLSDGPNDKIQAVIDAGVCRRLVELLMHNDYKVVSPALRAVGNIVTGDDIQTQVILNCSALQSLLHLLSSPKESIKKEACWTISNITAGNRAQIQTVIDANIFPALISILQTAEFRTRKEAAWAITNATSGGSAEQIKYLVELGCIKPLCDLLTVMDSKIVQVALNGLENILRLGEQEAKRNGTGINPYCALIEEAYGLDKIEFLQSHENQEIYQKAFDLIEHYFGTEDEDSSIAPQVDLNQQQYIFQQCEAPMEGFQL
UniProt K9N643: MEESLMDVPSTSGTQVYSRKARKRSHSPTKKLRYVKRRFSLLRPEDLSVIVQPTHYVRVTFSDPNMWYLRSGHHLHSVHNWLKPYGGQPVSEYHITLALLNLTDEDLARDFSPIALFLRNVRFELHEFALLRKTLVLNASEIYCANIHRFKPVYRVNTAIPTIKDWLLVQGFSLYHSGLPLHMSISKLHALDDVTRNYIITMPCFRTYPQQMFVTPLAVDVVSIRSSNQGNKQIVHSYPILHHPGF

Legend:
[1] = target: full-length HA-tagged IMPα3 (UniProt O00629); assay: co-IP
[2] = target: full-length HA-tagged IMPα5 (UniProt P52294); assay: co-IP

full-length FLAG-tagged MERS-CoV ORF4b (from UniProt K9N643 1-246)
binding [1]: binds | binding [2]: binds
